According to PMC7564595:
Results are given in words; binding and its absence hold for the method and conditions named. In cells and extracts the contact can be indirect. Some entries that bind do so weakly or less than the wild type. Tags and fused reporters may be left off the sequences shown.

Chains of the proteins cited; added tags and fusions are not shown.
UniProt Q9BSJ2: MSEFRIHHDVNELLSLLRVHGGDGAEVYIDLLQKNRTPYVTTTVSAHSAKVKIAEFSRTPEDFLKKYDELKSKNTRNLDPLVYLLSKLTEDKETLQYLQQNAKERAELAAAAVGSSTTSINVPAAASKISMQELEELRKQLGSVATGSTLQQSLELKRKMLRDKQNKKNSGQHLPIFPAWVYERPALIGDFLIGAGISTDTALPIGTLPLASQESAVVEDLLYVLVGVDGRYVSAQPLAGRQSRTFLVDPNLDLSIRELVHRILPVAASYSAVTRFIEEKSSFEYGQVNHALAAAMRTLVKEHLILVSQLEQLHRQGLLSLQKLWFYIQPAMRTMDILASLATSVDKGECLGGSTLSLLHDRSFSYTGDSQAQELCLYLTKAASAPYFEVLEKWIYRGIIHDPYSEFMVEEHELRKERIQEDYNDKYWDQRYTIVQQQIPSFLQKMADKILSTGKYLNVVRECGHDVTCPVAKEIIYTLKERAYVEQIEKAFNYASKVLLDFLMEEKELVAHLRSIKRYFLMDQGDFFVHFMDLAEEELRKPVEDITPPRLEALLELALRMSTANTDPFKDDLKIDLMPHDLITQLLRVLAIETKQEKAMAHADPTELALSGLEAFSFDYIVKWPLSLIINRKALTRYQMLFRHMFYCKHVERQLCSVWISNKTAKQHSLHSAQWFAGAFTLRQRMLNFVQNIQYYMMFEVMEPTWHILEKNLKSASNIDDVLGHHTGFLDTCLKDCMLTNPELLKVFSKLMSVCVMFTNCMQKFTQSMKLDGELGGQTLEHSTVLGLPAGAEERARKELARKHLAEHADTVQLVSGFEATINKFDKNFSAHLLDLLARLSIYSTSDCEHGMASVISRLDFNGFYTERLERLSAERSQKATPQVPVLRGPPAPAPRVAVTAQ
UniProt Q96CW5: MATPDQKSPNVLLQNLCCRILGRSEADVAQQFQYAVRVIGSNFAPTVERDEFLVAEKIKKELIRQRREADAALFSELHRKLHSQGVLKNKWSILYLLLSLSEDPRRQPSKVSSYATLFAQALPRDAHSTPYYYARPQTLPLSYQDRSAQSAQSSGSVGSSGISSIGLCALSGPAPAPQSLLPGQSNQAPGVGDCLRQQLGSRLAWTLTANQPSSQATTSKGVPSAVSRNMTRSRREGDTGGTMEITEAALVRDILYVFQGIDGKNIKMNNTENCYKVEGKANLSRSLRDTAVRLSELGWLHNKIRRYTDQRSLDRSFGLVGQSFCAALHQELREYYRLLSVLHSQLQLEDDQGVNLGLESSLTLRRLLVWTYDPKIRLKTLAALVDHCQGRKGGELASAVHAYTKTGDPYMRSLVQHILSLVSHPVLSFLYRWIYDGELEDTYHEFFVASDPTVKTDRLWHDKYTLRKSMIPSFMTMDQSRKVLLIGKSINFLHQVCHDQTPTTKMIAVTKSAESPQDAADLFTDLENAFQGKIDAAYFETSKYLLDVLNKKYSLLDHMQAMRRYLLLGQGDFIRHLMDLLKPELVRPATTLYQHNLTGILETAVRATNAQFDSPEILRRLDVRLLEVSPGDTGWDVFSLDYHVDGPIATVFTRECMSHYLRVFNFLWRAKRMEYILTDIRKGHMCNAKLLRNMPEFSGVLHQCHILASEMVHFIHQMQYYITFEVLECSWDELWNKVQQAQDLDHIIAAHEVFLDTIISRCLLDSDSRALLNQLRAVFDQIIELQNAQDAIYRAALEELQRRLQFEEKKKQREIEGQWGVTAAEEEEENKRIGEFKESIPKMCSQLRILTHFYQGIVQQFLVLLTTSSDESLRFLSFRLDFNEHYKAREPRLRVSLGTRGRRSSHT
UniProt Q9UBN7: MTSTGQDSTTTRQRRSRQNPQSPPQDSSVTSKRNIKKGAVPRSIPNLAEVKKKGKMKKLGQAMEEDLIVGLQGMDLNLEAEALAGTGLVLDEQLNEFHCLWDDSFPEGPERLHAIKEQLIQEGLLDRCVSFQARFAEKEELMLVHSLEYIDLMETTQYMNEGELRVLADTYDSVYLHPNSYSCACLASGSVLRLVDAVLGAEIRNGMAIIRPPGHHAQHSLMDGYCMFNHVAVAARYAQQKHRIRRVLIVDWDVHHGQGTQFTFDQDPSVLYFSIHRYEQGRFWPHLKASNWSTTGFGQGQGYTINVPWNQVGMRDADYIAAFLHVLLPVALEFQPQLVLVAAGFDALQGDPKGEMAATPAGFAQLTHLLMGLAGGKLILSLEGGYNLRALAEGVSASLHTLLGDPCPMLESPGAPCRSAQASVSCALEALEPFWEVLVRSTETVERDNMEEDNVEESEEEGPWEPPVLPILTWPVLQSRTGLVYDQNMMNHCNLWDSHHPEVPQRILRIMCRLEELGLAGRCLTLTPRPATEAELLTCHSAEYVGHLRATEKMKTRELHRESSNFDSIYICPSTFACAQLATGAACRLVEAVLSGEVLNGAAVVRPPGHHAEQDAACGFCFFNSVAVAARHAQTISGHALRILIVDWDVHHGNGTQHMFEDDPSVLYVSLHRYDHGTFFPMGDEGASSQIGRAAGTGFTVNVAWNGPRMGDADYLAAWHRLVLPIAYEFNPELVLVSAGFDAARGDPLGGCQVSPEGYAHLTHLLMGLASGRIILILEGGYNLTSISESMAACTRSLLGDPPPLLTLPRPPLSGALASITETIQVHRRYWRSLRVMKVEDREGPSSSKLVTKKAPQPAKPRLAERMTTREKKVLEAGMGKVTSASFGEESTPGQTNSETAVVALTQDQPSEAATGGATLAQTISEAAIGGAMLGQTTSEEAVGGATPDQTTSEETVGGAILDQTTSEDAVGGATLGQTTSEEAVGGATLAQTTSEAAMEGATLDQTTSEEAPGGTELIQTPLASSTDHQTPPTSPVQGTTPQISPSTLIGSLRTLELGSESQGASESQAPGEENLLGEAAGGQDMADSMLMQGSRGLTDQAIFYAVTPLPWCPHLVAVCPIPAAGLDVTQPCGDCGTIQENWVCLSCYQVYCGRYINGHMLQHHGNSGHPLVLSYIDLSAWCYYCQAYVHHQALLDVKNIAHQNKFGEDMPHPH

These substances were tested against T1, SIRT4-eGFP (human) (UniProt Q9Y6E7) (assay: co-IP; anti-eGFP nanobody co-immunoprecipitation from total cell lysates (0.3% CHAPS lysis buffer) of mitotically synchronized HEK293 cells expressing SIRT4-eGFP or eGFP; immunoblot).
T1 sequence: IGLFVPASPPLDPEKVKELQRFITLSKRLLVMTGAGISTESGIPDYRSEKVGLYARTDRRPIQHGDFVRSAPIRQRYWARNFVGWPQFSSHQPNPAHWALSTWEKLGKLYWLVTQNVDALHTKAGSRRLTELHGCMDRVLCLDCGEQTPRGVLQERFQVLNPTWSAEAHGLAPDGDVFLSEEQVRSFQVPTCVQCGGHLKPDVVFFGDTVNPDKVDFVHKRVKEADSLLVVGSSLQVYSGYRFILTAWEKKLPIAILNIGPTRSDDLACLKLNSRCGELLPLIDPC

binding, binds:
TUBGCP2 (from UniProt Q9BSJ2 1-902)
Tubulin Gamma Complex Associated Protein 3 (from UniProt Q96CW5 1-907)
histone deacetylase 6 (from UniProt Q9UBN7 1-1215) (enzyme)
